# From PubChem BioAssay AID504834 (National Center for Advancing Translational Sciences (NCATS), 2011)
# In all, about 320,000 compounds went through this assay and about 22,000 (6.9%) were called active. Inconclusive means that the source gave no clear call. Such entries were picked first, then a sample of the others. Calls come from the whole dose curve; as a rule, active = well fitted inhibition curve with a large enough effect; inconclusive = small, poorly fitted or top-dose-only effect, or another doubt; inactive = no such curve, though single readings can be large or run the other way. Where the call is inconclusive, the potency comes from a doubtful curve fit.
# Experiment: Primary qHTS for delayed death inhibitors of the malarial parasite plastid, 96 hour incubation
# Settings: P. falciparum luciferase reporter growth; series mostly up to 28.7 µM; activity change, negative = inhibition: at the top concentration
# Procedure, shortened: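 Infected RBCs, 2% Hct / 0.05% parasitemia final; luciferase-reporter P. falciparum; cpd 96 h, 37 C, 5% CO2; luciferase detection reagent; luminescence.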
# % is set by controls: 0 for no effect and ±100 for the full control effect; potency is the fitted concentration of half-maximal effect.
SMILES,Potency,"activity change, negative = inhibition"
CC(C)C[C@H](N)C(=O)N1CCC(C(=O)N[C@H](C(=O)NCc2ccc(F)cc2)C(C)C)CC1,"inconclusive: 9.28 µM [inhibitor, partial curve, poor fit]",
COc1ccc(C(=O)N/N=C/c2sc(N3CCOCC3)nc2-c2ccccc2)cc1OC,"inconclusive: 13.1 µM [inhibitor, partial curve]",
CC1CCCCC1NS(=O)(=O)c1ccc2c(c1)CC(=O)N2C (stereo not drawn),"inconclusive: 16.5 µM [inhibitor, partial curve, poor fit]",
Cc1cc(C)c(C#N)c(Nc2ccccc2F)n1,"inconclusive: 18.5 µM [inhibitor, single point]",
COC(CNC(=O)c1ccc2c(c1)ncn2-c1ccc(C)cc1C)OC,"inconclusive: 2.62 µM [inhibitor, partial curve, poor fit]",
CC(C)N(Cc1ccccc1)C(=S)NCCN1CCOCC1,"inconclusive: 1.31 µM [inhibitor, full curve, poor fit]",
Cc1ccc(S(=O)(=O)CC(=O)N2CCCCCC2)cc1,"inconclusive: 4.65 µM [inhibitor, partial curve, poor fit]",
O=C(O)C1CCN(S(=O)(=O)c2cccc3nsnc23)CC1,"inconclusive: 8.28 µM [inhibitor, partial curve]",
COC(=O)[C@@H]1CCCN1C(=O)CCc1nnc(C2CCCCC2)o1,active: 16.5 µM,
CC(=O)Nc1cc(C(=O)N2CCC3(CC2)OCCO3)ccc1S(=O)(=O)c1ccc(C)cc1,,inactive: 17.7%
Nn1c(N2CCCCC2)nc2ccccc21,"inconclusive: 2.33 µM [inhibitor, full curve, poor fit]",
CC(C)CCN(C(=O)c1csnn1)C(C(=O)NC1CCCC1)c1ccccc1 (stereo not drawn),"inconclusive: 10.4 µM [inhibitor, single point]",
N#CCCN(C(=O)c1cc2c(s1)-c1ccccc1S(=O)(=O)C2)c1ccccc1,"inconclusive: 13.1 µM [inhibitor, partial curve, poor fit]",
O=C(Cc1ccc(NC2=NC3CS(=O)(=O)CC3S2)cc1)NCCc1ccccc1 (stereo not drawn),"inconclusive: 9.28 µM [inhibitor, partial curve, poor fit]",
COc1cc(-c2[nH]ncc2CN2CCSCC2)cc(OC)c1OC,"inconclusive: 14.7 µM [inhibitor, partial curve, poor fit]",
Cc1ccc(NC(=O)CN(C)C(C)C(=O)Nc2ccc(S(=O)(=O)N3CCCC3)cc2)cc1 (stereo not drawn),active: 11.7 µM,
O=C(CCN=C1NS(=O)(=O)c2ccccc21)N1CCc2ccccc2C1,"inconclusive: 18.5 µM [inhibitor, single point]",
CCSc1nnc(C)c2ccccc12,"inconclusive: 1.47 µM [inhibitor, partial curve, poor fit]",
Cc1ccc(NC(=O)C(C)Sc2nnc(C3CC3)n2C2CC2)cc1S(=O)(=O)N1CCOCC1 (stereo not drawn),"inconclusive: 18.5 µM [inhibitor, single point]",
CCC(=O)Nc1cc(C(C)C)c(O)cc1C,"inconclusive: 11.7 µM [inhibitor, partial curve]",
Cc1sc2nc(SCCO)n(-c3ccccc3)c(=O)c2c1C,active: 10.4 µM,
COc1cccc(C(=O)N/N=c2\sc3ccccc3n2C)c1,,inactive: 54%

SMILES,Potency,"activity change, negative = inhibition"
CCOc1ccc(C(C(=O)NC2CCCCC2)N(CCOC)C(=O)c2snc(C(N)=O)c2N)cc1 (stereo not drawn),"inconclusive: 18.5 µM [inhibitor, single point]",
N/C(=N\OC(=O)N1c2ccccc2Sc2ccccc21)c1ccccc1,"inconclusive: 9.28 µM [inhibitor, single point]",
CCCCC1=CC2=CC(=O)C(C)(OC(=O)CC)C(=O)C2=CN1Cc1ccccc1 (stereo not drawn),"inconclusive: 14.7 µM [inhibitor, single point]",
O=C(Nc1ccc(Br)cc1F)c1ccc2c(c1)N(Cc1ccccc1)C(=O)CS2=O (stereo not drawn),"inconclusive: 10.4 µM [inhibitor, partial curve, poor fit]",
O=c1cc(N2CCN(Cc3ccccc3)CC2)[nH]c(=O)n1Cc1ccc(F)cc1,active: 3.7 µM,
CC(C)(C)c1nc2ccccc2c2nnc(SCC(=O)Nc3nc4ccccc4s3)n12,,inactive: 34.6%
O=C(COc1ccccc1Br)NC1CC1,,inactive: 31.6%
C[C@@H](NC(=O)/C(C#N)=C/c1ccc(O)c(O)c1)c1ccccc1,"inconclusive: 18.5 µM [inhibitor, single point]",
Cc1ccc(SCC(=O)NC(=O)NC2CCCC2)c(C)c1,,inactive: 40.1%
CC1CCCCC1NC(=O)c1cn(C)c2ccc(S(=O)(=O)N3CCCC3)cc2c1=O (stereo not drawn),,inactive: 1.46%
O=C(NCCCN1CCOCC1)c1ccccc1N1C(=O)[C@@H]2Cc3c([nH]c4ccccc34)C(c3ccc(F)cc3)N2C1=O (stereo partly drawn),"inconclusive: 5.22 µM [inhibitor, partial curve, poor fit]",
CCCOc1ccc(/C=N\NC(=O)CCc2n[nH]c(=O)[nH]c2=O)cc1OC,"inconclusive: 11.7 µM [inhibitor, single point]",
COc1cccc(Oc2ccc(C(F)(F)F)cc2NC(=O)CCc2nc3ccccc3c(=O)[nH]2)c1,active: 1.65 µM,
COc1ccc(OC)c(CNc2ccc3c(c2)CCC3)c1,active: 10.4 µM,
C=CCNC(=S)Nc1sc2c(c1C(=O)OCC)CC(C(C)C)OC2 (stereo not drawn),"inconclusive: 9.28 µM [inhibitor, partial curve]",
NC(=O)CC(NC(=O)c1cccc(Br)c1)c1ccc(N2CCCCCC2)c([N+](=O)[O-])c1 (stereo not drawn),"inconclusive: 0.0041 µM [inhibitor, full curve, poor fit]",
Cc1nn(CC(=O)Nc2ccc(Cl)cn2)c(C)c1[N+](=O)[O-],,inactive: -28.9%
Cc1ccc(S(=O)(=O)N2CC(=NO)C2)cc1,active: 13.1 µM,
CCOc1ccccc1N1C(=O)c2ccc(S(=O)(=O)c3ccc(C(=O)O)cc3)cc2C1=O,active: 0.165 µM,
COc1ccc(C(C(=O)NCc2ccccc2)N(C(=O)c2snc(C(N)=O)c2N)c2ccccc2OC)cc1OC (stereo not drawn),,inactive: -14.7%
COc1cccc2cc(-c3nnc(SCC(=O)NCc4ccccc4)n3C)oc12,,inactive: 4.27%

# By substructure: the compounds so far containing an aryl thioether with sulfur outside any ring.
SMILES,Potency,"activity change, negative = inhibition"
CCSc1nnc(C)c2ccccc12,"inconclusive: 1.47 µM [inhibitor, partial curve, poor fit]",
Cc1ccc(NC(=O)C(C)Sc2nnc(C3CC3)n2C2CC2)cc1S(=O)(=O)N1CCOCC1 (stereo not drawn),"inconclusive: 18.5 µM [inhibitor, single point]",
Cc1sc2nc(SCCO)n(-c3ccccc3)c(=O)c2c1C,active: 10.4 µM,
CC(C)(C)c1nc2ccccc2c2nnc(SCC(=O)Nc3nc4ccccc4s3)n12,,inactive: 34.6%
Cc1ccc(SCC(=O)NC(=O)NC2CCCC2)c(C)c1,,inactive: 40.1%
COc1cccc2cc(-c3nnc(SCC(=O)NCc4ccccc4)n3C)oc12,,inactive: 4.27%
